No constants are given. Whether binding was seen depends on the method and setting. In cells and extracts the contact can be indirect. Some entries that bind do so weakly or less than the wild type.

Amino acid sequences for entries named in this document (tags omitted).
UniProt O35800: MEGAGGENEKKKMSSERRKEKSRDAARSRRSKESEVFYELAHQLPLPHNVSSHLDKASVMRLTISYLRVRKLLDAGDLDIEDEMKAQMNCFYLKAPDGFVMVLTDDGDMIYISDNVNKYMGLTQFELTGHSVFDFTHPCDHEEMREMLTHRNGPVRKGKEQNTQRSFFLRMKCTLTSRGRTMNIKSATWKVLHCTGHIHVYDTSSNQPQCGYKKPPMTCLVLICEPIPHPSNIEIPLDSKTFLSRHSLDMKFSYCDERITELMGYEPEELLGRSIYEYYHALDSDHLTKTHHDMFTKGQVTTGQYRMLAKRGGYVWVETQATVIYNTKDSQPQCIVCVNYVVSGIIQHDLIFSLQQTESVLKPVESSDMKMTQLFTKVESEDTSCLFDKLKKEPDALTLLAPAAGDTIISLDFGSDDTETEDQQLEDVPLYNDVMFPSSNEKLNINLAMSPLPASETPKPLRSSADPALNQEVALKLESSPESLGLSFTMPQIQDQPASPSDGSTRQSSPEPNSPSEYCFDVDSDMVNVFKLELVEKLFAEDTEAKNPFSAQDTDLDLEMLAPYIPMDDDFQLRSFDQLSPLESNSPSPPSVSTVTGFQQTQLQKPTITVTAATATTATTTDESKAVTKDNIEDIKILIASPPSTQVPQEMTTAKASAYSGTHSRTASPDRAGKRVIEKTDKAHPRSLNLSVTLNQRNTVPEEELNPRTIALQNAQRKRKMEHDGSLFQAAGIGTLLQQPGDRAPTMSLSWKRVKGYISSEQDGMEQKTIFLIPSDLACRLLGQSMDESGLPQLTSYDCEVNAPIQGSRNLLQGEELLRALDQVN

This experiment concerns the target T1, Glycoprotein non-metastatic melanoma protein B (rat (endogenous in PC-12)) (UniProt Q6P7C7).
T1 sequence: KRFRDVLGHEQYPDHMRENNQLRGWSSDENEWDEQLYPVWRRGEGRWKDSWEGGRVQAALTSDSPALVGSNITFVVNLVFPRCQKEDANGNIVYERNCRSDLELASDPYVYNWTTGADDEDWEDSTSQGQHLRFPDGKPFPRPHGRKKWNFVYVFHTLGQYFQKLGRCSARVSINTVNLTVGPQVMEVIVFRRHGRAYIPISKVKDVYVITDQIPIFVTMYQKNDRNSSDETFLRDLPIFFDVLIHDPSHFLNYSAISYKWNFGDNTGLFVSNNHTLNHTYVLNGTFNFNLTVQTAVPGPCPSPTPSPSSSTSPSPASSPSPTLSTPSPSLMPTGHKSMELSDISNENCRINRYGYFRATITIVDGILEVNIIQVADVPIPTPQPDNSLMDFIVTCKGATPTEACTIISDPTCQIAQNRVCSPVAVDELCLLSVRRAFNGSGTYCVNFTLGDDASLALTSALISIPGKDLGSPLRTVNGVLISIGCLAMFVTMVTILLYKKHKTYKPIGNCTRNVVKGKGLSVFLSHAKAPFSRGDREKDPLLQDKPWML
Nature of the experiment: co-IP; lysates of OGD-treated PC-12 cells (IP lysis buffer) incubated with anti-GPNMB or anti-HIF-1α antibody or normal IgG at 4 °C overnight; Protein A/G magnetic beads; eluates analysed by western blot. For orientation: In western blotting, separated proteins are transferred to a membrane and probed.

Turning to HIF-1α (from UniProt O35800 1-825), the binding entry was “binds”.

The values are drawn from publication PMC12257678.
